Reference: article doi:10.1101/2024.08.29.610189 (bioRxiv, 2024)
These are yes or no findings as the source states them, for the method shown. Binding seen in cells or lysates may run through a third protein. Some entries that bind do so weakly or less than the wild type. Tags and fused reporters may be left off the sequences shown.

Target: T1, Atg12–Atg5 conjugate with Atg5–FLAG, in yeast cells (S. cerevisiae) (UniProt Q12380+P38316)
T1 sequence (chain, Atg12–Atg5 protein conjugate | Atg12–Atg5 protein conjugate) 1: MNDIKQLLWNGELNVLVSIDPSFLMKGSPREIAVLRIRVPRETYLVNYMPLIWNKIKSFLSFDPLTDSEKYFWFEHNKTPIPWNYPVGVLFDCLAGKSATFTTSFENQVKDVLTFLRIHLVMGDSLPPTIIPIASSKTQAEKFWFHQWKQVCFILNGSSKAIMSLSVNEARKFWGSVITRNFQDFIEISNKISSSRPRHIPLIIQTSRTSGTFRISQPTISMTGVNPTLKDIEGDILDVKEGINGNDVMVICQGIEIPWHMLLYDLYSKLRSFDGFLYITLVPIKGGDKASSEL
T1 sequence (chain, Atg12–Atg5 protein conjugate | Atg12–Atg5 protein conjugate) 2: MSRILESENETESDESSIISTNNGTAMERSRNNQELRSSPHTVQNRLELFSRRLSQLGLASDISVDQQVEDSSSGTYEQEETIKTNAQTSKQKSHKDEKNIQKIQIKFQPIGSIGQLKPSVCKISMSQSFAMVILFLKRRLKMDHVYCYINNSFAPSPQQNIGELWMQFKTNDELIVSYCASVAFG
Test: co-IP

B1: Atg17, wild type, expressed in yeast from a pRS316-derived plasmid (protein, UniProt Q06410 1-417)
chain: MNEADVTKFVNNARKTLTDAQLLCSSANLRIVDIKKKLSSWQLSISKLNFLIVGLRQQGKFLYTILKEGIGTKLIQKQWNQAVLVVLVDEMKYWQYEITSKVQRLDGIVNELSISEKDDTDPSKLGDYISRDNVNLLNDKLKEVPVIERQIENIKLQYENMVRKVNKELIDTKLTDVTQKFQSKFGIDNLMETNVAEQFSRELTDLEKDLAEIMNSLTQHFDKTLLLQDKKIDNDEREELFKVVQGDDKELYNIFKTLHEVIDDVDKTILNLGQFLQAKIKEKTELHSEVSEIINDFNRNLEYLLIFKDISNLIDSFKNSCTQDIQTTKELCEFYDNFEESYGNLVLEAKRRKDVANRMKTILKDCEKQLQNLDAQDQEERQNFIAENGTYLPETIWPGKIDDFSSLYTLNYNVKNP
With B1 the binding was “binds”.
